For 2 molecules, binding results are on record in publication PMC6837540.

Amino acid sequences for entries named in this document (tags omitted). A change or cut given only in a name is not applied to a line headed by its entry. Residues count along the entry.
UniProt Q15843, residues 1-76: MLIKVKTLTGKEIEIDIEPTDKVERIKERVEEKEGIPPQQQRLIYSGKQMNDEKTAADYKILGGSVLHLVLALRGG
UniProt Q8IIJ6: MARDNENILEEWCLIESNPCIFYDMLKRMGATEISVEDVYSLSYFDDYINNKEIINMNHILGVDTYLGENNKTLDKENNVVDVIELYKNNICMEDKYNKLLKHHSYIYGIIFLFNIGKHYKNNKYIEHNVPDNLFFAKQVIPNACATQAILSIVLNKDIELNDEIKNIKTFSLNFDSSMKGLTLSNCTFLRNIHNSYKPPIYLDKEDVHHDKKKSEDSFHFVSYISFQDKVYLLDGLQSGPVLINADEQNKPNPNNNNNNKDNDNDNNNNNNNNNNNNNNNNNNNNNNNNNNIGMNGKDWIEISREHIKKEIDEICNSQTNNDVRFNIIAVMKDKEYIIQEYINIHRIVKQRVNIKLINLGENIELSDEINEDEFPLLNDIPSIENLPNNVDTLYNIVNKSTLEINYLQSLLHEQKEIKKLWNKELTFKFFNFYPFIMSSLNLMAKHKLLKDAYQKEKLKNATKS

No constants are given. Whether binding was seen depends on the method and setting. Binding seen in cells or lysates may run through a third protein. These calls come from enrichment with a bait or labelling near it, and not all partners need be listed.

In the assay the target is FLAG-HsNedd8-VS (human) (UniProt Q15843). The assay is described as follows: affinity purification with mass spectrometry; only the target purified.

In the case of PfUCH37 (from UniProt Q8IIJ6) (enzyme), the binding result is recorded as “binds”.

B1: PfUCHL3 (enzyme, UniProt Q8IKM8 1-232)
chain: MAKNDIWTPLESNPDSLYLYSCKLGQSKLKFVDIYGFNNDLLDMIPQPVQAVIFLYPVNDNIVSENNTNDKHNLKENFDNVWFIKQYIPNSCGTIALLHLYGNLRNKFELDKDSVLDDFFNKVNEMSAEKRGQELKNNKSIENLHHEFCGQVENRDDILDVDTHFIVFVQIEGKIIELDGRKDHPTVHCFTNGDNFLYDTGKIIQDKFIEKCKDDLRFSALAVIPNDNFDII
Turning to B1, the binding result is “binds”.
